Source: US20090081697A1, “Methods of growing crystals of free and antibiotic complexed large ribosomal subunits, and methods of rationally designing or identifying antibiotics using structure coordinate data derived from such crystals” (Yeda Research and Development Co. Ltd., priority 2001, published 2009)

Test system: D50S (large ribosomal subunit), 23S rRNA peptidyl transferase cavity
Test: X-ray crystallography of antibiotic-D50S complexes
Assay type: binding, D. radiodurans

| Structure (SMILES) | Nucleotides of 23S rRNA interacting with the antibiotic (crystallized antibiotic-D50S complex, interacting moieties <4.5 Å apart, D. radiodurans numbering) | diameter of passage available for the nascent protein (space not occupied by erythromycin hosts a hydrated Mg2+ ion) |
| --- | --- | --- |
| O=C(N[C@H](CO)[C@H](O)c1ccc([N+](=O)[O-])cc1)C(Cl)Cl [chloramphenicol] | nucleotides 2044, 2430, 2431, 2479 and 2483-2485 | – |
| CC[C@H]1OC(=O)[C@H](C)[C@@H](O[C@H]2C[C@@](C)(OC)[C@@H](O)[C@H](C)O2)[C@H](C)[C@@H](O[C@@H]2O[C@H](C)C[C@H](N(C)C)[C@H]2O)[C@](C)(O)C[C@@H](C)C(=O)[C@H](C)[C@@H](O)[C@]1(C)O [erythromycin] | – | 6-7 Å |
